Test results: the supplement of paper PMC6411743
± gives the standard deviation of the averaged measurements. Some of the results follow.

By UniProt entry, the sequences of proteins in these tests, tags left out. Where a name states a change or a piece, a line headed by the entry shows the natural chain unless it says otherwise.
UniProt P60900, whole entry: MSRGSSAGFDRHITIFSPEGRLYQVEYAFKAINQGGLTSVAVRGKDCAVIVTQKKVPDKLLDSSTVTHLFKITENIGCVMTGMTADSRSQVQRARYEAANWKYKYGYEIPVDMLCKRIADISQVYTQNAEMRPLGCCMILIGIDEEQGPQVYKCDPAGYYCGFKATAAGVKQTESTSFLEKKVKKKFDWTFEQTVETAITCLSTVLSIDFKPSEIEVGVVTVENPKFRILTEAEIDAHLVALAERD
UniProt Q6XQN6: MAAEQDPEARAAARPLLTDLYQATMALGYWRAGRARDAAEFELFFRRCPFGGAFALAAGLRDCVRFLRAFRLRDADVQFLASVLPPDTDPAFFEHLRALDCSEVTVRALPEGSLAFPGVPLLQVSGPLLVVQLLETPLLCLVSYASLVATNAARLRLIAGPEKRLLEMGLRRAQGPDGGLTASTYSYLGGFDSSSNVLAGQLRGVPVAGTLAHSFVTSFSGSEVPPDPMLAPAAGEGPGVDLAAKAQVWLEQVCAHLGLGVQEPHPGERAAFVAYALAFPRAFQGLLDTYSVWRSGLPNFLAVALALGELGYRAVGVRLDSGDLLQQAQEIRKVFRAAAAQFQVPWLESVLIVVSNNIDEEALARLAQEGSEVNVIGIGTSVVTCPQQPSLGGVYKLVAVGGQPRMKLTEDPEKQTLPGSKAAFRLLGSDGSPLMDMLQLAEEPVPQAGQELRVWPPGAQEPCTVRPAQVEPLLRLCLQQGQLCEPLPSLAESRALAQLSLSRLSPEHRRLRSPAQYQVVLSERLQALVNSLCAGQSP
UniProt Q13740: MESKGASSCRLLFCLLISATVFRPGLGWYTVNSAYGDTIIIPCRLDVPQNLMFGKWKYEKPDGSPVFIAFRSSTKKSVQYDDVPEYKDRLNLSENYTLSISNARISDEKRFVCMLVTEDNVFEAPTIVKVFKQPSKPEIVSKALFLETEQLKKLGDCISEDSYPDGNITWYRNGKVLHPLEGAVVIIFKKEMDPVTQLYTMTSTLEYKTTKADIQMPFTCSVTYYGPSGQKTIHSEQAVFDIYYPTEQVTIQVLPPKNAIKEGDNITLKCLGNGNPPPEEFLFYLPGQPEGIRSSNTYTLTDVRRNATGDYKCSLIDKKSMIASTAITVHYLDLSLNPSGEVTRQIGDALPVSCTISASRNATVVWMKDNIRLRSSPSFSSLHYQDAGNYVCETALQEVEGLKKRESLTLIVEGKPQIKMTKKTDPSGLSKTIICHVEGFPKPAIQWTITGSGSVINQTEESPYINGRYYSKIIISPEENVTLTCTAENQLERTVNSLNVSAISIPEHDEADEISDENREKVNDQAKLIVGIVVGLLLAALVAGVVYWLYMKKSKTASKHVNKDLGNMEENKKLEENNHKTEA
UniProt Q14534: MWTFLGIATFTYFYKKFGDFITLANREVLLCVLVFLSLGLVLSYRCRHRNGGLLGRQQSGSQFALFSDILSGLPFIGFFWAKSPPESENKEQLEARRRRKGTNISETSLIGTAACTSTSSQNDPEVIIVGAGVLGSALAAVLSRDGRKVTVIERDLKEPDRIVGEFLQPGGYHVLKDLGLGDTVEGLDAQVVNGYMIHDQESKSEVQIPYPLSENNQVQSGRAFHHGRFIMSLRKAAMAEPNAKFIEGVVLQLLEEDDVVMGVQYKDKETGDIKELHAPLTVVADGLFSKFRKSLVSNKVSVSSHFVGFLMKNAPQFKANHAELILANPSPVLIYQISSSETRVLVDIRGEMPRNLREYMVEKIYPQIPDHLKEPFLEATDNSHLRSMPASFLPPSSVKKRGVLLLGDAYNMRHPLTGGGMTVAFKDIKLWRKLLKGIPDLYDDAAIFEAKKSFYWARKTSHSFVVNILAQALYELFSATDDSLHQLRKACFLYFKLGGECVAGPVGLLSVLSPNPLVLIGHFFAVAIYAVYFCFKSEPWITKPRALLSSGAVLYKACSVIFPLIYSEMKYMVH
UniProt O43903, whole entry: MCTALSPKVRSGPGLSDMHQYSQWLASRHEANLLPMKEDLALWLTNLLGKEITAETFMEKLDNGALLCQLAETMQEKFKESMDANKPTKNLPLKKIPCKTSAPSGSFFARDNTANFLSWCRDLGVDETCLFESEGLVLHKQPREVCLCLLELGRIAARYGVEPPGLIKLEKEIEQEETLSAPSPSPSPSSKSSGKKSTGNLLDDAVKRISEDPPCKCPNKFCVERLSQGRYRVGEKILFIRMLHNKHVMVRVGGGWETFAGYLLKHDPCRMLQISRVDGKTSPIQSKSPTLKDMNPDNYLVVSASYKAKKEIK
UniProt Q6IQ23: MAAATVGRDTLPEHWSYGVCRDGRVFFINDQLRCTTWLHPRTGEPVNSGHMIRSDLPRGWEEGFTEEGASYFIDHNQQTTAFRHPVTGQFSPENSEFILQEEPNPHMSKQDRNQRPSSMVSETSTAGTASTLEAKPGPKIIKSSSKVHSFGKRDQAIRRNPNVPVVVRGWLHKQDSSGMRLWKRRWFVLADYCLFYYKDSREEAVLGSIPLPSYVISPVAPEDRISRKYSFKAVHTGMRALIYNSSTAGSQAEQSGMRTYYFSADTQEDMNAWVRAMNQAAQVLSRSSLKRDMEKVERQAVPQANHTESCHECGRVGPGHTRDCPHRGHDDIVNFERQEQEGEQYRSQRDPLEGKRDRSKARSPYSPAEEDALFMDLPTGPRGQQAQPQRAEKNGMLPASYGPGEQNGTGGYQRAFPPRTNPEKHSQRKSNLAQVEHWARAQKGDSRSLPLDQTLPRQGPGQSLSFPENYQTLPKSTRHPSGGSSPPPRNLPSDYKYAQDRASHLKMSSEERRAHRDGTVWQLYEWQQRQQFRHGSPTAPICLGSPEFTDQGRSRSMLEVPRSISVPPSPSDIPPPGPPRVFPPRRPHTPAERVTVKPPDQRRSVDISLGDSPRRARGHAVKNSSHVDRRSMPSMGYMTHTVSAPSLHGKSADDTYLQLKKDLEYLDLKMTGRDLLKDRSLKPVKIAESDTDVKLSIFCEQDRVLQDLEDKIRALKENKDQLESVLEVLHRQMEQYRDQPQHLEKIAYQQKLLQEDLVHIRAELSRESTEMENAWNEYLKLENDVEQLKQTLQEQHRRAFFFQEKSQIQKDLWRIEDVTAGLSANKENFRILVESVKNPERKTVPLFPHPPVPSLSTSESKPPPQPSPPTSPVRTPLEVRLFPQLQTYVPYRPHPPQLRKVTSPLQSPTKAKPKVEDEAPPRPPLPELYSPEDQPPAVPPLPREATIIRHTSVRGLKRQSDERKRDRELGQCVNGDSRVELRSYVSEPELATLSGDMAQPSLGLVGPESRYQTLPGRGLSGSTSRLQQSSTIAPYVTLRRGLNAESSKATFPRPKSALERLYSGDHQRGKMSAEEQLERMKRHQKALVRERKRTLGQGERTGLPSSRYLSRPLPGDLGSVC
UniProt P52789: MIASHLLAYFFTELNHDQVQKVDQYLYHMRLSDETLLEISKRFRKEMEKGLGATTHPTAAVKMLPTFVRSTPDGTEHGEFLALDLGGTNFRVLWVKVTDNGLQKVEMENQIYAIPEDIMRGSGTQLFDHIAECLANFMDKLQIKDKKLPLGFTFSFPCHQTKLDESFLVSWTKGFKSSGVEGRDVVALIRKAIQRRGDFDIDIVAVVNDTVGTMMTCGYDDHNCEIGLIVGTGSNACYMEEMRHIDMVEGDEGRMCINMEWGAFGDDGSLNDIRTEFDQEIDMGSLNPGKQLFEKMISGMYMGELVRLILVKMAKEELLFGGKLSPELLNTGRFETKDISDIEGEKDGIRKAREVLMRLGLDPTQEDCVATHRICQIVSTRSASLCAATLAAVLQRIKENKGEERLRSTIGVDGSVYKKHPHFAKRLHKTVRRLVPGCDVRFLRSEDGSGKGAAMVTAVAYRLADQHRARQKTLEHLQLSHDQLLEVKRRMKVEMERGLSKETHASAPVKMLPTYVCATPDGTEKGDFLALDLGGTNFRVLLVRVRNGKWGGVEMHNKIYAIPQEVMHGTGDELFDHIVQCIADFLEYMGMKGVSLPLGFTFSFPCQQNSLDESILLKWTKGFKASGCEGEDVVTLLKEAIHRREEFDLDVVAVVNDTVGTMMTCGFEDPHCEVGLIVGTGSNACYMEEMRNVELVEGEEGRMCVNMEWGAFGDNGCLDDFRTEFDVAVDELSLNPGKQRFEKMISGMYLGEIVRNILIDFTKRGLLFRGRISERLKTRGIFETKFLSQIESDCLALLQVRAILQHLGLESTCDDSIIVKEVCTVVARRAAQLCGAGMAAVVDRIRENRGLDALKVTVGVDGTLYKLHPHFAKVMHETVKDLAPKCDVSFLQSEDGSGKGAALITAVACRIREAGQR
UniProt P22234: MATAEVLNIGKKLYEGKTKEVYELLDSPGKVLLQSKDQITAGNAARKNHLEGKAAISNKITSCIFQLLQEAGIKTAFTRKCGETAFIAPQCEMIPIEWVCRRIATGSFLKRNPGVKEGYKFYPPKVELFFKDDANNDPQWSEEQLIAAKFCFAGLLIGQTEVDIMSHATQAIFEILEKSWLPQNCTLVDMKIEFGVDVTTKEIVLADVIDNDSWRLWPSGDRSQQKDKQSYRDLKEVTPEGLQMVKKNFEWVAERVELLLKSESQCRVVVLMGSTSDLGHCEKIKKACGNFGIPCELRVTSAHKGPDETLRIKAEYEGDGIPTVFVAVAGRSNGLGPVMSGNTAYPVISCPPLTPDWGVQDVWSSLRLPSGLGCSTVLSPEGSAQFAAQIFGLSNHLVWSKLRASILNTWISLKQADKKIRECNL
UniProt O00750: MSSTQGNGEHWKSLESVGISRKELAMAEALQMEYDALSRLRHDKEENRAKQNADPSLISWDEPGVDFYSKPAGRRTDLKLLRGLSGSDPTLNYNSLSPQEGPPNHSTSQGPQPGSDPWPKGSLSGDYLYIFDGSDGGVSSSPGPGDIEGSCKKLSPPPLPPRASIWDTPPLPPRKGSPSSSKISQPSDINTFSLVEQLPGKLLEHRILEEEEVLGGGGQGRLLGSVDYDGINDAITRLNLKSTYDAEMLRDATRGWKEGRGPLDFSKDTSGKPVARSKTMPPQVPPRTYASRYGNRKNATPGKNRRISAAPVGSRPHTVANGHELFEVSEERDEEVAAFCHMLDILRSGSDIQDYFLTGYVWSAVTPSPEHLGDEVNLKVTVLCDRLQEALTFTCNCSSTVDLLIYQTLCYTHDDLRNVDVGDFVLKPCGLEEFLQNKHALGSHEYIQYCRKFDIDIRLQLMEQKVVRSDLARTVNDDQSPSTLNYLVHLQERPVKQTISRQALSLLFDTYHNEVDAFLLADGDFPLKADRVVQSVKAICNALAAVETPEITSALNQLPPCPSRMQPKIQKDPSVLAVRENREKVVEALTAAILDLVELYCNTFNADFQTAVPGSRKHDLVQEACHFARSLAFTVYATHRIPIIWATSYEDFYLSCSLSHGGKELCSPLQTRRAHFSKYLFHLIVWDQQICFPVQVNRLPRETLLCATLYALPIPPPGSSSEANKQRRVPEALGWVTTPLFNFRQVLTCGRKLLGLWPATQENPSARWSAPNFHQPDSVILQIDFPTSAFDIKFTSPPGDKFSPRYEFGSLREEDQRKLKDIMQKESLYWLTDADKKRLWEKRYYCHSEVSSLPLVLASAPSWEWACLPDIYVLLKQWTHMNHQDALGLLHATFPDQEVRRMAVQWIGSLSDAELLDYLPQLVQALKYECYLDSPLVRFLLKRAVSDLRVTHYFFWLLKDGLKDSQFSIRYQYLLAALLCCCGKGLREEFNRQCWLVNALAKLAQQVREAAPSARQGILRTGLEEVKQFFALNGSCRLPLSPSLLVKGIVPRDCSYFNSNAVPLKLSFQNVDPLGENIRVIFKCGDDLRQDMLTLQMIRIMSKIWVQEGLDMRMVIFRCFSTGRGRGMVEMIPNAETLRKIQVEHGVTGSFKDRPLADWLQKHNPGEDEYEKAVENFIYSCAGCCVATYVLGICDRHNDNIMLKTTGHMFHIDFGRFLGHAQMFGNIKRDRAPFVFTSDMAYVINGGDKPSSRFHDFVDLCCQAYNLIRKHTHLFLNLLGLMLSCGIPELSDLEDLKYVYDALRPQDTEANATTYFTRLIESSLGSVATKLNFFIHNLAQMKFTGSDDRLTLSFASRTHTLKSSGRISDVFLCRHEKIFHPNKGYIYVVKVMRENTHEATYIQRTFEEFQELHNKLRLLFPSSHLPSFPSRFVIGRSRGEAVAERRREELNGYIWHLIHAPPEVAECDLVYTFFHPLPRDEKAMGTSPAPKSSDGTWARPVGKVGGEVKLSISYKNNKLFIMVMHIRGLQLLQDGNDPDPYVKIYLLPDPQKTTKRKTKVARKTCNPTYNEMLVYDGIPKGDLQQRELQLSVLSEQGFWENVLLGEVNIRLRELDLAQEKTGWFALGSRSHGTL

Compound: Nc1nc2c(ncn2[C@@H]2O[C@H](COP(=O)(O)OP(=O)(O)OP(=O)(O)O)[C@@H](O)[C@H]2O)c(=O)[nH]1 [guanosine triphosphate]
Assay: NP40-soluble protein abundance relative to vehicle (solubility fold change) (ratio); higher = more soluble protein in presence of GTP
How it was run: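 Each value is a fold change relative to the detergent-processed vehicle, calculated per replicate from vsn-normalised intensities. Jurkat crude lysate received eight concentrations (0.1 to 10 mM) for 10 min at room temperature and 3 min at 37 °C, then was solubilised in 0.8% NP40 with benzonase (60 min, 4 °C). The ultracentrifuged supernatant was TMT-labelled and run by LC-MS/MS in three independent experiments.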

Target	NP40-soluble protein abundance (concentration: 0.1mM)	NP40-soluble protein abundance (concentration: 0.5mM)	NP40-soluble protein abundance (concentration: 1mM)	NP40-soluble protein abundance (concentration: 2mM)	NP40-soluble protein abundance (concentration: 4mM)	NP40-soluble protein abundance (concentration: 6mM)	NP40-soluble protein abundance (concentration: 8mM)	NP40-soluble protein abundance (concentration: 10mM)
G3V5Z7 and related entries (UniProt P60900)	1.03 ± 0.082	1.09 ± 0.15	1.03 ± 0.13	1.07 ± 0.19	1.08 ± 0.17	1.1 ± 0.21	1.06 ± 0.16	1.02 ± 0.17
F5H101 and related entries (UniProt Q76FK4)	0.967 ± 0.062	0.964 ± 0.099	1.03 ± 0.07	1.02 ± 0.1	1.06 ± 0.099	1.1 ± 0.1	1.17 ± 0.038	1.22 ± 0.096
G5E977 and related entries (UniProt Q6XQN6)	0.955 ± 0.029	0.962 ± 0.15	0.944 ± 0.033	0.952 ± 0.067	0.944 ± 0.013	0.841 ± 0.12	0.839 ± 0.016	0.803 ± 0.088
F5GXJ9 and related entries (UniProt Q13740)	0.832 ± 0.064	0.877 ± 0.076	0.92 ± 0.11	0.879 ± 0.086	0.868 ± 0.057	0.895 ± 0.083	0.832 ± 0.055	0.893 ± 0.11
E7EVQ6 and related entries (UniProt Q14534)	1.14 ± 0.16	1.15 ± 0.12	1.03 ± 0.034	1.1 ± 0.12	1.05 ± 0.062	0.973 ± 0.053	1.02 ± 0.2	0.983 ± 0.15
G3V3G9 (UniProt P40855)	1.04 ± 0.033	1.01 ± 0.039	0.955 ± 0.024	0.969 ± 0.035	1.02 ± 0.06	0.976 ± 0.099	1 ± 0.026	0.971 ± 0.042
E9PD50 and related entries (UniProt Q92540)	0.952 ± 0.035	0.96 ± 0.067	0.962 ± 0.084	0.991 ± 0.088	0.951 ± 0.065	0.987 ± 0.091	0.982 ± 0.08	0.986 ± 0.053
E7EW32 and related entries (UniProt Q7L1V2)	1.04 ± 0.11	1.09 ± 0.089	0.964 ± 0.1	0.978 ± 0.13	0.998 ± 0.04	0.992 ± 0.071	0.989 ± 0.11	0.944 ± 0.12
G3V167 and related entries (UniProt Q9UGN5)	0.968 ± 0.053	1.05 ± 0.13	1.05 ± 0.13	1.09 ± 0.11	1.1 ± 0.092	1.21 ± 0.076	1.28 ± 0.12	1.4 ± 0.1
F5H8D0 and related entries (UniProt Q96GC5)	1.07 ± 0.094	1.31 ± 0.21	1.39 ± 0.35	1.56 ± 0.41	1.53 ± 0.4	1.61 ± 0.41	1.64 ± 0.53	1.61 ± 0.53
F8W057 and related entries (UniProt Q9GZN1)	1.07 ± 0.071	1.12 ± 0.041	1.08 ± 0.06	1.18 ± 0.081	1.13 ± 0.045	1.15 ± 0.02	1.19 ± 0.11	1.14 ± 0.045
E9PRR5 and related entries (UniProt O43903)	0.956 ± 0.014	0.957 ± 0.042	0.94 ± 0.02	0.903 ± 0.074	0.894 ± 0.05	0.911 ± 0.057	0.944 ± 0.069	0.963 ± 0.071
F5GZ78 and related entries (UniProt P49023)	0.948 ± 0.031	0.981 ± 0.067	0.932 ± 0.064	0.929 ± 0.058	0.905 ± 0.045	0.906 ± 0.038	0.924 ± 0.026	0.933 ± 0.076
E9PJH7 and related entries (UniProt Q9H936)	1.08 ± 0.049	1.05 ± 0.078	1 ± 0.044	1.02 ± 0.11	1.07 ± 0.095	1.04 ± 0.1	1.02 ± 0.043	1 ± 0.039
E9PKC0 and related entries (UniProt Q6IQ23)	1.03 ± 0.024	1.06 ± 0.055	1.11 ± 0.052	1.16 ± 0.062	1.21 ± 0.085	1.22 ± 0.074	1.24 ± 0.11	1.25 ± 0.13
F8VYC4 and related entries (UniProt P0DJD1+P0DJD0+F8VYC4)	0.973 ± 0.065	1.03 ± 0.053	0.97 ± 0.079	1.01 ± 0.03	0.941 ± 0.12	0.992 ± 0.096	1.06 ± 0.14	1.02 ± 0.11
E9PKF6 and related entries (UniProt Q5H9R7)	0.948 ± 0.042	0.949 ± 0.046	0.96 ± 0.048	0.912 ± 0.051	0.908 ± 0.04	0.927 ± 0.056	0.933 ± 0.031	0.919 ± 0.055
F6S7C4 and related entries (UniProt Q8NEM7)	1.23 ± 0.04	1.22 ± 0.089	1.21 ± 0.11	1.29 ± 0.038	1.43 ± 0.071	1.42 ± 0.058	1.37 ± 0.087	1.38 ± 0.088
E9PB90 and related entries (UniProt P52789)	1.05 ± 0.043	1.03 ± 0.061	0.978 ± 0.035	0.949 ± 0.07	0.983 ± 0.064	0.932 ± 0.036	0.938 ± 0.014	0.876 ± 0.087
E7EQY1 and related entries (UniProt Q96C01)	0.879 ± 0.058	0.859 ± 0.03	1.03 ± 0.07	0.987 ± 0.047	0.976 ± 0.039	0.983 ± 0.073	0.975 ± 0.11	1.07 ± 0.064
E9PKI8 and related entries (UniProt P37837)	0.912 ± 0.05	0.904 ± 0.08	0.859 ± 0.15	0.846 ± 0.11	0.83 ± 0.12	0.815 ± 0.18	0.854 ± 0.08	0.843 ± 0.1
E7EUI6 and related entries (UniProt P05556)	0.897 ± 0.072	0.907 ± 0.079	0.942 ± 0.063	0.916 ± 0.096	0.895 ± 0.087	0.921 ± 0.071	0.924 ± 0.043	0.953 ± 0.1
G3V3H3 and related entries (UniProt Q07866)	0.949 ± 0.055	0.991 ± 0.068	0.974 ± 0.056	0.932 ± 0.06	0.93 ± 0.047	0.942 ± 0.05	0.971 ± 0.053	0.965 ± 0.069
G3V394 and related entries (UniProt Q9Y4I1)	1.28 ± 0.16	2.15 ± 0.36	2.39 ± 0.25	2.51 ± 0.3	2.65 ± 0.31	2.59 ± 0.39	2.5 ± 0.4	2.51 ± 0.36
E9PBS1 and related entries (UniProt P22234)	0.941 ± 0.036	0.993 ± 0.078	0.926 ± 0.054	0.92 ± 0.076	0.917 ± 0.068	0.942 ± 0.087	0.9 ± 0.052	0.887 ± 0.055
F5GWN5 and related entries (UniProt O00750)	1.1 ± 0.048	1.05 ± 0.033	1.06 ± 0.039	1.06 ± 0.075	1.03 ± 0.066	1.05 ± 0.11	1.05 ± 0.086	0.956 ± 0.071

Record cards, from the list above.
E9PRR5 and related entries (UniProt O43903) as listed: NP40-soluble protein abundance (concentration: 0.1mM): 0.956 ± 0.014; NP40-soluble protein abundance (concentration: 0.5mM): 0.957 ± 0.042; NP40-soluble protein abundance (concentration: 1mM): 0.94 ± 0.02; NP40-soluble protein abundance (concentration: 2mM): 0.903 ± 0.074; NP40-soluble protein abundance (concentration: 4mM): 0.894 ± 0.05; NP40-soluble protein abundance (concentration: 6mM): 0.911 ± 0.057; NP40-soluble protein abundance (concentration: 8mM): 0.944 ± 0.069; NP40-soluble protein abundance (concentration: 10mM): 0.963 ± 0.071
G3V3H3 and related entries (UniProt Q07866) as listed: NP40-soluble protein abundance (concentration: 0.1mM): 0.949 ± 0.055; NP40-soluble protein abundance (concentration: 0.5mM): 0.991 ± 0.068; NP40-soluble protein abundance (concentration: 1mM): 0.974 ± 0.056; NP40-soluble protein abundance (concentration: 2mM): 0.932 ± 0.06; NP40-soluble protein abundance (concentration: 4mM): 0.93 ± 0.047; NP40-soluble protein abundance (concentration: 6mM): 0.942 ± 0.05; NP40-soluble protein abundance (concentration: 8mM): 0.971 ± 0.053; NP40-soluble protein abundance (concentration: 10mM): 0.965 ± 0.069
